Reference: PubChem BioAssay AID445 (National Center for Advancing Translational Sciences (NCATS), 2006)
Some of the results follow. The main result of the screen is listed elsewhere. These columns were measured beside it and carry no call. The list favours compounds with an active or inconclusive main result. Potencies come from curve fits of mixed quality, noted in brackets.

assay: IkB Signaling; details: ABC-DLBCL IkBa-CBG/CBR dual luciferase ratio (green luciferase fused to IkBa over red control in OCI-Ly3 lymphoma cells), 4 h; measured here: control luc red channel unless noted
In short: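 Curves were fitted separately to fusion (green), unfused (red) and ratio luminescence, then classed by r2, magnitude and activity. Cells: OCI-Ly3, 4 h compound plus doxycycline at 37C; 10 uM MG-132 defined full response.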

**Q.** For CCCCn1c(NCc2ccc(N(C)C)cc2)nc2ccccc21, which AC50 is on record?
**A.** 25.1 µM [falling, partial curve]

**Q.** With CCN1CCc2nc3sc(C(=O)c4ccc(F)cc4)c(N)c3cc2C1 as the molecule, how does the AC50 read?
**A.** 1.26 µM [falling, full curve]

**Q.** Which AC50 does the source give for Cc1ccc(C(C)C)c(OCC(=O)Nc2ccc(Cl)cn2)c1 here?
**A.** 7.94 µM [falling, partial curve]

**Q.** With COc1ccc(NC(=O)c2c(NCc3cccc(OC)c3)sc3c2CCCC3)cc1 as the molecule, how does the AC50 read?
**A.** 10 µM [falling, partial curve]

**Q.** With Cc1ccc2occ(CC(=O)N(Cc3ccc(C(C)C)cc3)C3CCS(=O)(=O)C3)c2c1 (stereo unspecified) as the molecule, how does the AC50 read?
**A.** 31.6 µM [falling, single point]

**Q.** With O=C(CCC1N=C2c3ccccc3N=C(SCc3ccccc3F)N2C1=O)NCc1ccc(F)cc1 (stereo unspecified) as the molecule, how does the AC50 read?
**A.** 25.1 µM [falling, partial curve]

**Q.** For CCOC(=O)c1ccc(-n2[nH]c(-c3ccccc3)cc2=O)cc1, which AC50 is on record?
**A.** 3.16 µM [falling, full curve]

**Q.** With Cc1ccc(-c2nc(N)n(C(=O)Cc3ccccc3)n2)cc1 as the molecule, how does the AC50 read?
**A.** 39.8 µM [falling, single point]

**Q.** Which AC50 does the source give for CC1=C(c2ccc(Cl)cc2)S(=O)(=O)N=C1N1CCC(C(=O)NCc2ccccc2F)CC1 here?
**A.** 15.8 µM [falling, partial curve]

**Q.** Which AC50 does the source give for CCCCCCOC(=O)Sc1nc2ccccc2o1 here?
**A.** 10 µM [falling, partial curve]

**Q.** Which AC50 does the source give for COc1ccc(CCNc2nc3c(-c4cccc(C)c4)nnn3c3ccccc23)cc1OC here?
**A.** 1.26 µM [falling, full curve]

**Q.** For O=C(Nc1ccc2c(c1)OCO2)C1CCN(Cc2cnn(-c3ccccc3)c2-n2cccc2)CC1, which AC50 is on record?
**A.** 15.8 µM [falling, partial curve]

**Q.** With CCc1ccc(S(=O)(=O)c2nnn3c2nc(N2CCCC2)c2sccc23)cc1 as the molecule, how does the AC50 read?
**A.** 1.26 µM [rising, full curve]

**Q.** For Cc1ccccc1C1C=C(c2ccc(Cl)cc2)Nc2nnnn21 (stereo unspecified), which AC50 is on record?
**A.** 39.8 µM [falling, single point]

**Q.** With Cc1nn(-c2ccc(N3CCCCC3)nn2)c(C)c1CCC(=O)NCc1ccccc1F as the molecule, how does the AC50 read?
**A.** 15.8 µM [falling, single point]

**Q.** Which AC50 does the source give for COc1ccc(-n2nc3c(N4CCCC(C(=O)NCCc5ccc(C)cc5)C4)nnc(C)c3c2C)cc1 (stereo unspecified) here?
**A.** 7.94 µM [falling, partial curve]

**Q.** For COCCNC(=O)C(=O)NCC(c1cccnc1)N1CCN(c2ccccc2F)CC1 (stereo unspecified), which AC50 is on record?
**A.** 25.1 µM [falling, single point]

**Q.** Which AC50 does the source give for COc1ccccc1Nc1nc2ccc(Cl)cc2nc1-n1nc(C)cc1C here?
**A.** 15.8 µM [falling, partial curve, poor fit]

**Q.** With COc1ccc(NC(=O)c2nc3nc(C)cc(C(F)F)n3n2)c(C)c1 as the molecule, how does the AC50 read?
**A.** 10 µM [rising, partial curve]

**Q.** With CCOC(=O)c1ccc(NC(=O)CC2C(=O)N(c3ccc(F)cc3)C(=O)N2Cc2ccc3c(c2)OCO3)cc1 (stereo unspecified) as the molecule, how does the AC50 read?
**A.** 39.8 µM [falling, single point]

**Q.** With CCOC(=O)c1cccc(NC(=O)C2CCN(S(=O)(=O)c3cn(C)cn3)CC2)c1 as the molecule, how does the AC50 read?
**A.** 12.6 µM [falling, partial curve]

**Q.** With COc1cc(-c2nnc(CSc3nc4ccccc4s3)o2)cc(OC)c1OC as the molecule, how does the AC50 read?
**A.** 20 µM [falling, partial curve]

**Q.** With Cc1ccc(C)c(NS(=O)(=O)c2cc3c(cc2Cl)NC(=O)CO3)c1 as the molecule, how does the AC50 read?
**A.** 2.51 µM [rising, partial curve]

**Q.** For CCc1ccc(NC(=O)N2CC(C)Oc3ccc(C)cc32)cc1 (stereo unspecified), which AC50 is on record?
**A.** 10 µM [falling, partial curve]

**Q.** Which AC50 does the source give for COCCCNc1ncnc2c1cnn2-c1ccc(F)cc1 here?
**A.** 0.794 µM [rising, full curve]

**Q.** Which AC50 does the source give for COc1cc2ccccc2cc1C(=O)Nc1ccc2oc(-c3cccc(Cl)c3Cl)nc2c1 here?
**A.** 0.316 µM [falling, full curve, poor fit]

**Q.** For COc1cccc(-c2cc(C(=O)Nc3ccc(C)cc3)[nH]n2)c1, which AC50 is on record?
**A.** 1.26 µM [falling, partial curve]

**Q.** With Cc1cc(C)n(-c2nc3ccccc3nc2Nc2cc(C(=O)O)ccc2C)n1 as the molecule, how does the AC50 read?
**A.** 3.16 µM [falling, partial curve]

**Q.** With O=C(Nc1ccc2c(c1)OCO2)C1CCN(C(=O)CSc2ncnc3ccccc23)CC1 as the molecule, how does the AC50 read?
**A.** 20 µM [falling, partial curve]

**Q.** For Cc1ccc(CN2CCN(CC(=O)NCc3ccccc3Cl)C2=O)cc1, which AC50 is on record?
**A.** 10 µM [falling, single point]

**Q.** With CC1CC(C)CN(C(=O)COC(=O)c2cc3ccccc3cc2O)C1 (stereo unspecified) as the molecule, how does the AC50 read?
**A.** 25.1 µM [falling, single point]

**Q.** Which AC50 does the source give for CCOc1ccc(C(=O)N2CCCCC2CCN2CCOCC2)cc1 (stereo unspecified) here?
**A.** 1 µM [rising, partial curve]

**Q.** For COc1ccc(NC(=O)c2sc3nc(C)c(C(=O)Nc4ccc(Cl)cc4)c(-c4ccc(Br)cc4)c3c2N)cc1, which AC50 is on record?
**A.** 3.98 µM [falling, partial curve]

**Q.** With O=C(c1ccc2c(c1)N(Cc1ccccc1)C(=O)c1ccccc1S2(=O)=O)N1CCN(c2ccccn2)CC1 as the molecule, how does the AC50 read?
**A.** 39.8 µM [falling, single point]

**Q.** With CCOC(=O)c1cccc(NS(=O)(=O)c2cn(C)c(C)n2)c1 as the molecule, how does the AC50 read?
**A.** 0.0398 µM [rising, full curve, poor fit]

**Q.** For COC(=O)c1ccccc1NC(=O)Cn1c(=O)n(-c2ccc(Cl)cc2)c(=O)c2c(C)c(C)sc21, which AC50 is on record?
**A.** 0.501 µM [falling, full curve]

**Q.** Which AC50 does the source give for Cc1ccc(NC(=O)CSc2nc3c([nH]c4ccccc43)c(=O)n2-c2ccccc2)c(C)c1 here?
**A.** 0.2 µM [falling, full curve]

**Q.** With Cc1ccc(N2CCN(C(=S)c3ccc(N(C)C)cc3)CC2)cc1 as the molecule, how does the AC50 read?
**A.** 3.98 µM [falling, partial curve]

**Q.** Which AC50 does the source give for COc1ccc(S(=O)(=O)Nc2cc3c(cc2NCc2ccccc2)n(C)c(=O)n3C)cc1OC here?
**A.** 3.16 µM [rising, partial curve]

**Q.** For CCOc1ccc(C(=O)Nc2ccc3nc(SCc4ccccc4)sc3c2)cc1, which AC50 is on record?
**A.** 20 µM [falling, partial curve]

**Q.** With COc1ccccc1N1CCN(C(=O)Cn2c(=O)nc(-c3ccccc3)c3cc(Cl)ccc32)CC1 as the molecule, how does the AC50 read?
**A.** 2.51 µM [falling, full curve, poor fit]
